# Library screen at single concentrations

Values are the deposited “Percent Effect”, in %.
The record does not define 0% and 100%; most values in the screen are far below 50% and negative numbers occur (in some assays of this library far below -100).
Compounds were drawn at random from those tested, without regard to their results.

Mtb glucose medium: 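Phenotypic screen: M. tuberculosis growth, glucose 7H9 medium, 3 days; the read-out is not stated. Concentration: 500 µM. The record gives no direction; compounds that gave an IC50 in retests scored well above the rest, so higher reads as more growth inhibition. About 18,000 compounds were tested under these conditions; 7.9% (about 1,400) showed 50% or more at least once.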
Mtb cholesterol medium: 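Phenotypic screen: M. tuberculosis growth, cholesterol and DPPC medium, 4 days; the read-out is not stated. Concentration: 500 µM. Higher reads as more growth inhibition (inferred: compounds with an IC50 in retests scored well above the rest). Size under these conditions: about 18,000 compounds, about 900 of them at 50% or above in at least one test.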

SMILES | Mtb glucose medium | Mtb cholesterol medium
Cn1nnnc1SCCOc1cccc(F)c1 | 66.35 | 69.07
COc1cccc(OCCN2CCNCC2)c1 | 44.9 | 39.01
COc1cc(C#N)ccc1S(=O)(=O)N[C@@H]1CCCNC1 | 4.548 | -6.679
CC1=CCN(Cc2cccc(OCC(N)=O)c2)CC1 | -23.83 | -55.64
CNC(=O)Cc1ccc(NC(=O)c2ccco2)cc1 | 11.37 | 3.124
NC(=O)CN1CCN(CCOc2ccc(Cl)cc2)CC1 | 25.46 | -1.036
CN(C(=O)COc1cccc(C#N)c1)C1CC1 | -6.297 | -33.27
COC(C(=O)Nc1cnccc1CO)c1ccccc1 (stereo not shown) | 8.346 | 4.768
CC(=O)NCCC1CCCCN1Cc1noc(C)n1 (stereo not shown) | -10.24 | -14.99
O=C(Cn1cccn1)NCCc1ccc2c(c1)OCO2 | 53.27 | 19.92
CN(CC(N)=O)C(CCO)c1ccccc1 (stereo not shown) | 5.898 | -8.075
CCCC1CNCCO1 (stereo not shown) | 3.276 | -2.326
Cc1cnc(CO)cn1 | -1.062 | 0.2586
Cn1cc(Br)c(CN2C(=O)c3ccccc3C2=O)n1 | 3.114 | -5.21
CNCC1(O)CCCc2ccccc21 (stereo not shown) | -12.48 | -24.43
CCN(Cc1ccncc1)C(=O)C1CCCNCC1 (stereo not shown) | 8.249 | -1.257
CCN1CCCC1CNC(=O)CN(C)S(C)(=O)=O (stereo not shown) | -20.87 | -7.218
CCCn1ncnc1-c1ccc(S(C)(=O)=O)cc1 | -1.838 | -8.292
NCc1ccc(C(=O)NC2CC2)cc1 | 11.56 | 3.162
Cn1nc(C(F)(F)F)c(Cl)c1C(=O)N[C@@H]1CCNC1 | 52.01 | 44.25
CC(OC(=O)CCNS(=O)(=O)c1ccccc1)C(N)=O (stereo not shown) | 4.588 | 3.458
CNC(=O)c1cnc(OCC(F)(F)F)c(Cl)c1 | 27.48 | 2.337
CCC1(C(=O)Nc2ccc3[nH]ncc3c2)CCNC1 (stereo not shown) | 15.07 | 6.08
COc1ccc(NC(=O)COc2ccccc2F)cn1 | 70.83 | 70.49
COC(=O)C(C)CN(C)C(=O)C1CCOCC1 (stereo not shown) | 2.035 | -9.626
Cc1nc(CNC(=O)c2ccc3c(c2)N(C)CC3)no1 | 5.864 | 4.521
O=C(NCCCN1Cc2ccccc2C1)C1CCC1 | 27.27 | -2.802
CN(CC1CCOC1)C(=O)Cc1ccc(F)cc1 (stereo not shown) | 15.9 | 9.598
CCn1cc(C(=O)Nc2n[nH]c(C3CCC3)n2)cn1 | 2.649 | 7.541
NC(=O)COc1ccc(Br)cc1CNCC1CCCO1 (stereo not shown) | 25.91 | 12.06
COc1cccnc1N1CCNCC1 | -2.67 | -9.477
CN1CCCC(CN2CCN(c3nc[nH]n3)CC2)C1 (stereo not shown) | -3.836 | -20.78
CCOC(=O)c1c(C)nn2c(C)c(C(C)=O)cnc12 | -4.399 | -12.08
NC(CO)c1nc2ccccc2[nH]1 (stereo not shown) | 10.35 | -19.54
Cc1ccc(CNCCS(=O)(=O)N2CCOCC2)cc1 | 33.6 | 37.4
CC(C)(C)Oc1ccc(C#N)cn1 | 11.23 | -3.596
Cc1nc(C(=O)Nc2cnn(C)c2)ccc1C#N | -5.39 | -9.009
Cc1nnnn1-c1cccc(-n2cnnn2)c1 | 11.2 | 8.535
NC[C@]12C[C@H]1CCN2Cc1ccccc1 | 48.28 | 52.87
Cc1cnn(CCNCc2cccc3c2OCO3)c1 | 51.87 | 41.05
COc1ccc2cc(S(=O)(=O)N(C)C)ccc2c1 | 2.65 | 1.974
CCN1CCCC(CNC(=O)Nc2cnn(CC)c2)C1 (stereo not shown) | 1.989 | -5.725
Cc1cc(C(=O)N2C[C@@H]3CCCN[C@@H]3C2)cc(C)n1 | -3.614 | -5.743
OCc1ccccc1C1CCNCC1 | 13.13 | 6.419
COc1cc(F)c(NC(=O)N2CCC(O)CC2)cc1F | -2.818 | -6.951
COC(=O)c1ccc(=O)n(Cc2ccco2)c1 | 29.27 | 9.296
O=C1CCC(=O)N1CCc1ccccc1Cl | 24.99 | 15.26
CC[C@H](CO)NS(=O)(=O)c1c(F)cc(C#N)cc1F | 18.98 | 7.883
COC(=O)c1oc(CN2CCC(CO)CC2)cc1C | -6.487 | -12.26
Cc1cc(F)ccc1C(=O)NCCNC(=O)N(C)C | -0.7001 | -1.12
Cc1cc(C(=O)N(C)Cc2cccc(C#N)c2)[nH]n1 | -1.528 | 8.716
CCCC(NC(=O)c1ncoc1C)C(=O)OC (stereo not shown) | 17.77 | 7.723
CC(Sc1nc2ccccc2o1)C(=O)N1CCOCC1 (stereo not shown) | 76.74 | 62.57
CSCC(=O)N1CCN(Cc2nccn2C)CC1 | -2.35 | -2.732
O=C(CCc1nnc(-c2ccsc2)o1)NC1=NCCS1 | 2.596 | 1.082
NC(=O)N1CCCN(Cc2ccc(Br)o2)CC1 | 0.9899 | -6.497
CN(Cc1cccnc1)CC1CCNC1 (stereo not shown) | 9.805 | -4.658
O=C(Nc1ncccc1O)c1cccnc1C(F)(F)F | 1.068 | -4.443
CCc1nccn1CCN1CC2(CCOC2)CCC1=O (stereo not shown) | 2.136 | 4.122

Some entries from above, unchanged:

- CN(C(=O)COc1cccc(C#N)c1)C1CC1 : Mtb glucose medium: -6.297%; Mtb cholesterol medium: -33.27%
- Cn1nnnc1SCCOc1cccc(F)c1 : Mtb glucose medium: 66.35%; Mtb cholesterol medium: 69.07%
- CN(Cc1cccnc1)CC1CCNC1 (stereo not shown) : Mtb glucose medium: 9.805%; Mtb cholesterol medium: -4.658%
- COc1cc(C#N)ccc1S(=O)(=O)N[C@@H]1CCCNC1 : Mtb glucose medium: 4.548%; Mtb cholesterol medium: -6.679%
- CN(CC(N)=O)C(CCO)c1ccccc1 (stereo not shown) : Mtb glucose medium: 5.898%; Mtb cholesterol medium: -8.075%

Source: ChEMBL document CHEMBL3988442, “University of Dundee, Small-Polar-MMV Screening Library” (2021).